Measured values taken from paper doi:10.1101/2023.08.07.552315 (bioRxiv, 2023).
Results are given in words; binding and its absence hold for the method and conditions named. A result given as binding can be weak or reduced; the word gives no strength.

B1: ZWINT (protein, UniProt O95229 1-277)
chain: MEAAETEAEAAALEVLAEVAGILEPVGLQEEAELPAKILVEFVVDSQKKDKLLCSQLQVADFLQNILAQEDTAKGLDPLASEDTSRQKAIAAKEQWKELKATYREHVEAIKIGLTKALTQMEEAQRKRTQLREAFEQLQAKKQMAMEKRRAVQNQWQLQQEKHLQHLAEVSAEVRERKTGTQQELDRVFQKLGNLKQQAEQERDKLQRYQTFLQLLYTLQGKLLFPEAEAEAENLPDDKPQQPTRPQEQSTGDTMGRDPGVSFKAVGLQPAGDVNLP

Columns and labels:
[1] = biological target: T1, PMF1 (subunit of the Mis12 complex in the KMN cryo-EM sample) (human) (UniProt Q6P1K2); experiment: cryo-EM structure
T1 sequence: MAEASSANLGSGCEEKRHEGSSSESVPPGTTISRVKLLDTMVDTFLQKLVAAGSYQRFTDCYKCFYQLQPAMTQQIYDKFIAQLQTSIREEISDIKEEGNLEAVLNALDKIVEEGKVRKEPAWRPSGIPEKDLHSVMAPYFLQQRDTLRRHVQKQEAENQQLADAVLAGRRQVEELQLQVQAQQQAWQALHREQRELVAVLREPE

[2] = biological target: T2, DSN1 (subunit of the Mis12 complex in the KMN cryo-EM sample) (human) (UniProt Q9H410); experiment: cryo-EM structure
T2 sequence: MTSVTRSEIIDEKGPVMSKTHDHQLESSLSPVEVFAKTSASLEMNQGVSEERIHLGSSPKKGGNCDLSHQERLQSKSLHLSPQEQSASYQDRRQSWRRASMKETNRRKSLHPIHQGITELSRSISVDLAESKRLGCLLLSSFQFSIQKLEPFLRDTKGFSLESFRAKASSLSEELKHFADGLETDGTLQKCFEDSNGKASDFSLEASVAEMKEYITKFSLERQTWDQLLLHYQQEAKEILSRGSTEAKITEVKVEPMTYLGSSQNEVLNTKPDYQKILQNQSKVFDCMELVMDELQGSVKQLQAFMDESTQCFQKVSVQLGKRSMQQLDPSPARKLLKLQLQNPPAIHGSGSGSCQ

[3] = biological target: KNL1 residues 2021-2342 (human); experiment: SEC

Molecule	binding [1]	binding [2]	binding [3]
KNL1 residues 2021-2342 (human) (domain or fragment)	binds	binds	
B1			binds
